Reference: the supplement of paper PMC4862054
Most entries show no effect beyond the scatter of the controls.

Tests used:
Assay in all cases: normalised response (% of control), CellTox Green; higher = less cell death (100 = DMSO, 0 = benzethonium chloride kill control)
Settings in all cases: incubation time: 72 h
HCC1599 [1] = tested on: HCC1599
Protocol: (§1)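 DSRT, 72 h incubation, CellTox Green / CellTiter-Glo readout. Signal is normalised to DMSO and benzethonium chloride controls. Value is the normalised response at dose 2.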

BT-474 [2] = tested on: BT-474
Protocol: as §1

HCC1143 [3] = tested on: HCC1143
Protocol: as §1

MDA-MB-231 [4] = tested on: MDA-MB-231
Protocol: as §1

MFM-223 [5] = tested on: MFM-223
Protocol: as §1

CAL-51 [6] = tested on: CAL-51
Protocol: as §1

DU-4475 [7] = tested on: DU-4475
Protocol: as §1

MDA-MB-436 [8] = tested on: MDA-MB-436
Protocol: as §1

BT-549 [9] = tested on: BT-549
Protocol: as §1

MDA-MB-468 [10] = tested on: MDA-MB-468
Protocol: as §1

CAL-120 [11] = tested on: CAL-120
Protocol: as §1

CAL-85-1 [12] = tested on: CAL-85-1
Protocol: as §1

CAL-148 [13] = tested on: CAL-148
Protocol: as §1

MDA-MB-453 [14] = tested on: MDA-MB-453
Protocol: as §1

HDQ-P1 [15] = tested on: HDQ-P1
Protocol: as §1

MCF-10A [16] = tested on: MCF-10A
Protocol: as §1

HCC1599 [17] = tested on: HCC1599; remark: listed apart in the source
Protocol: (§2)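 DSRT, 72 h incubation, CellTox Green / CellTiter-Glo readout. Signal is normalised to DMSO and benzethonium chloride controls. Value is the normalised response at the lowest tested concentration.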

Hs578T [18] = tested on: Hs578T
Protocol: as §2

BT-474 [19] = tested on: BT-474; remark: listed apart in the source
Protocol: as §2

HCC1143 [20] = tested on: HCC1143; remark: listed apart in the source
Protocol: as §2

MDA-MB-231 [21] = tested on: MDA-MB-231; remark: listed apart in the source
Protocol: as §2

MFM-223 [22] = tested on: MFM-223; remark: listed apart in the source
Protocol: as §2

CAL-51 [23] = tested on: CAL-51; remark: listed apart in the source
Protocol: as §2

DU-4475 [24] = tested on: DU-4475; remark: listed apart in the source
Protocol: as §2

MDA-MB-436 [25] = tested on: MDA-MB-436; remark: listed apart in the source
Protocol: as §2

BT-549 [26] = tested on: BT-549; remark: listed apart in the source
Protocol: as §2

MDA-MB-468 [27] = tested on: MDA-MB-468; remark: listed apart in the source
Protocol: as §2

CAL-120 [28] = tested on: CAL-120; remark: listed apart in the source
Protocol: as §2

CAL-85-1 [29] = tested on: CAL-85-1; remark: listed apart in the source
Protocol: as §2

CAL-148 [30] = tested on: CAL-148; remark: listed apart in the source
Protocol: as §2

MDA-MB-453 [31] = tested on: MDA-MB-453; remark: listed apart in the source
Protocol: as §2

HDQ-P1 [32] = tested on: HDQ-P1; remark: listed apart in the source
Protocol: as §2

MCF-10A [33] = tested on: MCF-10A; remark: listed apart in the source
Protocol: as §2

Hs578T [34] = tested on: Hs578T; remark: listed apart in the source
Protocol: as §1

Row | Compound | normalised response (HCC1599 [1]) [%] | normalised response (BT-474 [2]) [%] | normalised response (HCC1143 [3]) [%] | normalised response (MDA-MB-231 [4]) [%] | normalised response (MFM-223 [5]) [%] | normalised response (CAL-51 [6]) [%] | normalised response (DU-4475 [7]) [%] | normalised response (MDA-MB-436 [8]) [%] | normalised response (BT-549 [9]) [%] | normalised response (MDA-MB-468 [10]) [%] | normalised response (CAL-120 [11]) [%] | normalised response (CAL-85-1 [12]) [%] | normalised response (CAL-148 [13]) [%] | normalised response (MDA-MB-453 [14]) [%] | normalised response (HDQ-P1 [15]) [%] | normalised response (MCF-10A [16]) [%] | normalised response (HCC1599 [17]) [%] | normalised response (Hs578T [18]) [%] | normalised response (BT-474 [19]) [%] | normalised response (HCC1143 [20]) [%] | normalised response (MDA-MB-231 [21]) [%] | normalised response (MFM-223 [22]) [%] | normalised response (CAL-51 [23]) [%] | normalised response (DU-4475 [24]) [%] | normalised response (MDA-MB-436 [25]) [%] | normalised response (BT-549 [26]) [%] | normalised response (MDA-MB-468 [27]) [%] | normalised response (CAL-120 [28]) [%] | normalised response (CAL-85-1 [29]) [%] | normalised response (CAL-148 [30]) [%] | normalised response (MDA-MB-453 [31]) [%] | normalised response (HDQ-P1 [32]) [%] | normalised response (MCF-10A [33]) [%] | normalised response (Hs578T [34]) [%]
1 | O=C(O)c1ccc(-c2c[nH]c3ncc(-c4ccccc4)cc23)cc1C1CCCC1 (10 nM) | 95.2 | 97.8 | 91.2 | 91.7 | 101 | 93.8 | 93.1 | 72 | 80.2 | 85.5 | 98.2 | 104 | 104 | 96.2 | 88.4 | 91.7 |  |  |  |  |  |  |  |  |  |  |  |  |  |  |  |  |  | 
2 | COc1ccc(S(=O)(=O)Nc2cccnc2Nc2ccc(O)cc2)cc1 [ABT-751] (1 nM) |  |  |  |  |  |  |  |  |  |  |  |  |  |  |  |  | 101 | 63.5 | 99.5 | 104 | 102 | 94.3 | 126 | 97.9 | 86.4 | 109 | 114 | 96.7 | 99.5 | 104 | 106 | 98.8 | 83.3 | 
3 | CN(C)CCN1C(=O)c2cccc3cc(N)cc(c23)C1=O [Amonafide] (1 nM) |  |  |  |  |  |  |  |  |  |  |  |  |  |  |  |  | 95.7 | 107 | 101 | 110 | 82.5 | 102 | 134 | 94.9 | 88.5 | 99 | 105 | 91.7 | 106 | 104 | 108 | 90.7 | 104 | 
4 | Cn1c(CCCC(=O)O)nc2cc(N(CCCl)CCCl)ccc21 [Bendamustine] (10 nM) | 101 | 93.8 | 112 | 108 | 100 | 100 | 107 | 113 | 97.5 | 77.1 | 102 | 100 | 109 | 102 | 123 |  |  |  |  |  |  |  |  |  |  |  |  |  |  |  |  |  |  | 96
5 | Cc1c(N)nc([C@H](CC(N)=O)NC[C@H](N)C(N)=O)nc1C(=O)N[C@H](C(=O)N[C@H](C)[C@@H](O)[C@H](C)C(=O)N[C@H](C(=O)NCCc1nc(-c2nc(C(=O)NCCC[S+](C)C)cs2)cs1)[C@@H](C)O)[C@@H](OC1OC(CO)C(O)C(O)C1OC1OC(CO)C(O)C(OC(N)=O)C1O)c1cnc[nH]1 (stereo partly drawn) [Bleomycin] (1 nM) |  |  |  |  |  |  |  |  |  |  |  |  |  |  |  |  | 103 |  | 99.1 | 117 | 96.8 | 95.4 | 99.6 | 99.7 | 86.8 | 101 | 108 | 98.4 | 103 | 99.9 | 101 | 56.8 | 103 | 
6 | C#Cc1cccc(Nc2ncnc3cc(OC)c(OCCCCCCC(=O)NO)cc23)c1 [CUDC-101] (1 nM) |  |  |  |  |  |  |  |  |  |  |  |  |  |  |  |  | 107 | 90.5 | 104 | 76.1 | 85.5 | 95.5 | 112 | 101 |  | 101 | 86.4 | 98 | 101 |  | 115 | 108 | 61.4 | 
7 | C#Cc1cccc(Nc2ncnc3cc(OC)c(OCCCCCCC(=O)NO)cc23)c1 [CUDC-101] (10 nM) | 114 | 97.6 | 115 | 104 | 103 | 70.1 | 112 | 109 | 113 |  | 106 | 89 | 101 | 94.2 | 118 | 113 |  |  |  |  |  |  |  |  |  |  |  |  |  |  |  |  |  | 52.2
8 | CC(C)C[C@H](NC(=O)[C@H](CCc1ccccc1)NC(=O)CN1CCOCC1)C(=O)N[C@@H](Cc1ccccc1)C(=O)N[C@@H](CC(C)C)C(=O)[C@@]1(C)CO1 [Carfilzomib] (0.1 nM) |  |  |  |  |  |  |  |  |  |  |  |  |  |  |  |  | 99.5 |  | 103 | 68.3 | 110 | 103 | 124 | 101 |  | 95 | 98.8 | 102 | 100 | 106 | 111 | 95.6 | 98.7 | 
